Laboratory results from patent US20030103978A1.
No constants are given. Whether binding was seen depends on the method and setting. Some binding calls cover weakened binding; strength is not graded here. Tags and fused reporters may be left off the sequences shown.

Target: T1, soluble ODAR-Fc fusion (FLAG-human ODAR extracellular domain-human Fc) (human) (UniProt Q9Y6Q6)
T1 sequence (looked up): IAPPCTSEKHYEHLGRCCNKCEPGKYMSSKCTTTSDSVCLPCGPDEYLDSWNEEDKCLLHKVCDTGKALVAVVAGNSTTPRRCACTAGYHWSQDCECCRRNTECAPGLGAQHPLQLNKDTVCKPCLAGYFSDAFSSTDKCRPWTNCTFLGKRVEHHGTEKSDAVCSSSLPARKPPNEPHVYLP
Assay: FRET competition assay: unlabelled OPGbp[143-317] (TBS) competing with Eu-labelled OPGbp[143-317] for sODAR-Fc (anti-human Fc-APC); ratio 665 nm/620 nm against Conc (nM), log axis

B1: human OPGbp[143-317] (ligand, UniProt O14788 143-317, looked up)
chain: EKAMVDGSWLDLAKRSKLEAQPFAHLTINATDIPSGSHKVSLSSWYHDRGWAKISNMTFSNGKLIVNQDGFYYLYANICFRHHETSGDLATEYLQLMVYVTKTSIKIPSSHTLMKGGSTKYWSGNSEFHFYSINVGGFFKLRSGEEISIEVSNPSLLDPDQDATYFGAFKVRDID
Q: B1 was tested. Which binding did it give?
A: binds
